Laboratory results: PubChem BioAssay AID1259308 (NCATS, 2017)
The whole screen tested about 59,000 reagents; this is a part drawn at random. About 1,510 of them (2.6%) were called active. 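Calls use total luciferase alone and ignore viability, so some active siRNAs may act by altering cell number.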

Assay: 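Candidate targets for better recombinant protein yield in mammalian cells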 (primary screen)
Cells: human HEK293 embryonic kidney cells stably expressing firefly luciferase (HEK-CMV-Luc2-Hygro)
Reagent: single siRNA against human genes, 0.8 pmol siRNA per well
Timing: 72 h
Read-out: 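Reporter luminescence and viable-cell signal on separate replicate plates, given as percent of non-targeting control and median/MAD z-scores, plus per-cell luciferase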
Reading the numbers: total luciferase, z-score and total luciferase, % of control: higher = more reporter protein produced; luciferase per cell, z-score: higher = more reporter output per viable cell; viable cells, % of control: higher = more viable cells
Call rule: 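Active when the median/MAD z-score for overall luciferase is greater than 3; a gene was taken forward for validation with new siRNAs if at least two of its three siRNAs passed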
Calls: active = raised luciferase; inactive = no rise

target gene | PubChem SID | total luciferase, z-score | total luciferase, % of control | luciferase per cell, z-score | viable cells, % of control | Outcome
ADIPOR2 | SID160748974 | 1.59 | 114 | 1.41 | 87.5 | inactive
ADIPOR2 | SID160748975 | 2.48 | 131 | 1.99 | 86.7 | inactive
ADIPOR2 | SID160748976 | 0.0535 | 83 | -0.391 | 103 | inactive
LAMA4 | SID160776496 | 0.254 | 86.9 | -0.0652 | 98.8 | inactive
LAMA4 | SID160776497 | -0.705 | 67.9 | -1.37 | 109 | inactive
LAMA4 | SID160776498 | 0.455 | 90.9 | 0.176 | 97 | inactive
RBSN | SID160747523 | 0.162 | 85.1 | 0.0434 | 94 | inactive
RBSN | SID160747524 | -0.949 | 63 | -0.722 | 85.1 | inactive
RBSN | SID160747525 | -0.531 | 71.3 | 0.199 | 75.6 | inactive
FBXW5 | SID160733544 | 0.409 | 90 | 0.201 | 95.4 | inactive
FBXW5 | SID160741717 | 0.34 | 88.7 | 0.394 | 89.3 | inactive
FBXW5 | SID160741718 | 1.05 | 103 | 0.554 | 99.3 | inactive
CCNDBP1 | SID160736604 | -0.501 | 71.9 | -1.08 | 107 | inactive
CCNDBP1 | SID160736605 | 0.0379 | 82.6 | -0.342 | 101 | inactive
CCNDBP1 | SID160736606 | -0.665 | 68.7 | -0.745 | 93.4 | inactive
CTNNA2 | SID160750354 | -2.12 | 39.8 | -0.515 | 50.9 | inactive
CTNNA2 | SID160750366 | 0.247 | 86.8 | 0.871 | 77.1 | inactive
CTNNA2 | SID160750376 | -0.382 | 74.3 | -0.838 | 103 | inactive
CEP57L1 | SID160733008 | 0.288 | 87.6 | -0.135 | 101 | inactive
CEP57L1 | SID160763711 | -1.06 | 60.8 | 0.554 | 58.7 | inactive
CEP57L1 | SID160763712 | 2.39 | 129 | 1.65 | 93.6 | inactive
HESX1 | SID160720890 | 0.4 | 89.8 | -0.515 | 115 | inactive
HESX1 | SID160720891 | 0.196 | 85.8 | -0.15 | 99.7 | inactive
HESX1 | SID160732100 | -1.49 | 52.2 | -1.97 | 98 | inactive
PSMB4 | SID160715192 | -1.5 | 52.1 | 0.087 | 56.9 | inactive
PSMB4 | SID160715193 | 0.0607 | 83.1 | 0.0472 | 91.7 | inactive
PSMB4 | SID160715194 | 0.0564 | 83 | -0.0644 | 94.3 | inactive
CEACAM20 | SID160756349 | -0.3 | 75.9 | 0.308 | 78.2 | inactive
CEACAM20 | SID160756350 | 0.5 | 91.8 | 0.0273 | 102 | inactive
CEACAM20 | SID160756351 | 1.25 | 107 | 1.72 | 75.7 | inactive
PEA15 | SID160720594 | 1.05 | 103 | 0.714 | 95.2 | inactive
PEA15 | SID160720595 | -2.42 | 33.8 | -1.13 | 50.9 | inactive
PEA15 | SID160735149 | -1.37 | 54.6 | -1.15 | 82.5 | inactive
TGFA | SID160717980 | 0.176 | 85.4 | 0.0949 | 93.1 | inactive
TGFA | SID160717981 | 0.537 | 92.6 | 0.102 | 101 | inactive
TGFA | SID160717982 | 0.429 | 90.4 | 0.776 | 82.4 | inactive
COL2A1 | SID160745737 | -0.851 | 65 | 0.146 | 69.9 | inactive
COL2A1 | SID160745746 | -0.274 | 76.4 | -0.637 | 101 | inactive
COL2A1 | SID160745756 | 0.683 | 95.5 | 0.6 | 91.1 | inactive
LINC00851 | SID160725405 | -1.16 | 58.8 | -1.09 | 87.6 | inactive
LINC00851 | SID160733400 | -0.233 | 77.2 | -0.0547 | 87.6 | inactive
LINC00851 | SID160767867 | -2.44 | 33.3 | -0.69 | 44.6 | inactive
ATP2B2 | SID160721634 | 0.638 | 94.6 | -0.212 | 112 | inactive
ATP2B2 | SID160721645 | 0.1 | 83.9 | -0.305 | 102 | inactive
ATP2B2 | SID160721655 | -1.87 | 44.8 | -1.17 | 68.1 | inactive
STAMBP | SID160728870 | -0.434 | 73.3 | -0.965 | 106 | inactive
STAMBP | SID160728871 | -0.0177 | 81.5 | -0.312 | 98.9 | inactive
STAMBP | SID160730461 | -0.955 | 62.9 | -0.238 | 74.8 | inactive
STAT5B | SID160717443 | 0.546 | 92.7 | 0.491 | 91.1 | inactive
STAT5B | SID160717444 | -0.212 | 77.7 | -0.455 | 97.8 | inactive
STAT5B | SID160717445 | 0.193 | 85.7 | -0.254 | 102 | inactive
SLC52A2 | SID160748931 | 1.62 | 114 | 0.704 | 106 | inactive
SLC52A2 | SID160748932 | -1.11 | 59.8 | -0.776 | 82 | inactive
SLC52A2 | SID160748933 | 0.464 | 91.1 | 0.318 | 93.6 | inactive
JAG2 | SID160776069 | 0.991 | 102 | 1.53 | 76 | inactive
JAG2 | SID160776070 | -0.729 | 67.4 | -0.805 | 93.1 | inactive
JAG2 | SID160776071 | -1.52 | 51.7 | -1.97 | 97 | inactive

Single entries from above:
Value for LINC00851 [SID160725405] in “Outcome”: inactive
CEP57L1 [SID160733008], total luciferase, % of control = 87.6
For “total luciferase, % of control”, ATP2B2 [SID160721645] shows 83.9
Result of STAMBP [SID160730461] in “luciferase per cell, z-score”: -0.238
HESX1 [SID160720890], total luciferase, z-score = 0.4
Value of STAT5B [SID160717444] under “Outcome”: inactive
